At least one read-out could not be matched to a standard name with certainty.
Assay: Interaction analysis between CEA-V2122-del5 and modified biotin using Biacore T200 (single-cycle kinetics, bivalent analysis mode)
Format: binding
Settings: modified biotin = Psyche J-iodine
Description: The interaction between CEA-V2122-del5 and a modified biotin was analyzed using Biacore T200. The Psyche J-iodine described in Production Example 1 was used herein as a modified biotin.
The analysis method was specifically as follows. That is, an amine-coupling kit was used, a target value was set to be 3000 RU, and the purified CEA-V2122-del5 was immobilized on Sensor Chip CM5. With regard to the concentrations of the analytes, 2.5E−09 M was two-fold diluted, and 5 types of two-fold serial dilutions including 2.5E-09 M were prepared and used in the measurement. Regarding interaction analysis, data were obtained by single-cycle kinetics analysis. Using Biacore T200 Evaluation Software, version 2.0, the obtained data were subjected to curve fitting in a bivalent analysis mode, and the following values were obtained: ka1=6.3E+03, and kd1=8.0E−06.

B1: CEA-V2122-del5: fusion of scFv-type anti-CEACAM5 antibody and mutant streptavidin V2122 lacking 11 C-terminal amino acids including 6xHis tag (SEQ ID NO: 18) (protein)
chain: MKYLLPTAAAGLLLLAAQPAMAQVKLEQSGAEVVKPGASVKLSCKASGFNIKDSYMHWLRQGPGQRLEWIGWIDPENGDTEYAPKFQGKATFTTDTSANTAYLGLSSLRPEDTAVYYCNEGTPTGPYYFDYWGQGTLVTVSSGGGGSGGGGSGGGGSENVLTQSPSSMSVSVGDRVNIACSASSSVPYMHWLQQKPGKSPKLLIYLTSNLASGVPSRFSGSGSGTDYSLTISSVQPEDAATYYCQQRSSYPLTFGGGTKLEIKGGGGSGGGGAEAGITGTWSDQLGDTFIVTAGADGALTGTYENAVGGAESRYVLTGRYDSAPATDGSGTALGWTVAWKNNSKNAHSATTWSGQYVGGADAKINTQWLLTSGTTNANAWKSTLVGHDTFTKVK
binding to a modified biotin (from the KD value in the sensorgram, FIG. 2): strongly binds

Source: patent US20220348681A1, “FUSED PROTEIN OF AN ANTIBODY WHICH RECOGNIZES CANCER-CELLS AND A STREPTAVIDIN MUTANT” (THE UNIVERSITY OF TOKYO, priority 2021, published 2022)
